Assay results published in patent US6492139.
These are yes or no findings as the source states them, for the method shown. Binding seen in cells or lysates may run through a third protein. Some entries that bind do so weakly or less than the wild type. Sequences can lack the tags named with a protein.

The chains behind the UniProt entries cited, without tags or fusion partners. Where a name states a change or a piece, a line headed by the entry shows the natural chain unless it says otherwise.
UniProt P97698: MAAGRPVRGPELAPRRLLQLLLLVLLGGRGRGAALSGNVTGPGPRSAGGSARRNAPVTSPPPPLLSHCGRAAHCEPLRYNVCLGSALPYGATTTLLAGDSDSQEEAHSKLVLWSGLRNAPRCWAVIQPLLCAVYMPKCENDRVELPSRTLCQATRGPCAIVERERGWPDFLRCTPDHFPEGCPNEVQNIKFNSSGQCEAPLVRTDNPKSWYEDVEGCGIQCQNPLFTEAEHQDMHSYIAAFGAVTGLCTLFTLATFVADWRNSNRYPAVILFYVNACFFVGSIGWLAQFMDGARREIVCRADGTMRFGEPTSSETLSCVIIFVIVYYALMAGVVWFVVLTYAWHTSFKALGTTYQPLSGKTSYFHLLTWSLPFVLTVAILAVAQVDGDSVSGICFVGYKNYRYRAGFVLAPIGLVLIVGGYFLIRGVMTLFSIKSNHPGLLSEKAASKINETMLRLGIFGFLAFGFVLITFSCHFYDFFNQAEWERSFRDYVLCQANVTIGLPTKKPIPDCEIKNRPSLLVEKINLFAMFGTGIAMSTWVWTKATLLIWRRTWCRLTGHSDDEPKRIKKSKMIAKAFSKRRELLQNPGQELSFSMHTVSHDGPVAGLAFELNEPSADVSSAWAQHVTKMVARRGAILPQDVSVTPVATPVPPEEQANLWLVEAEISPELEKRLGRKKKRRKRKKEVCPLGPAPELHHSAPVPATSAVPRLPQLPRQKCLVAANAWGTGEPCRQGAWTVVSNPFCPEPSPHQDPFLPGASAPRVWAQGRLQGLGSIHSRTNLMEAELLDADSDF

Tests used:
[1] = target: T1, Myc tagged mPatched (murine Patched with C-terminal Myc epitope tag) (mouse) (UniProt Q61115); assay: co-immunoprecipitation and Western blot (legend of FIG. 7)
T1 sequence (looked up): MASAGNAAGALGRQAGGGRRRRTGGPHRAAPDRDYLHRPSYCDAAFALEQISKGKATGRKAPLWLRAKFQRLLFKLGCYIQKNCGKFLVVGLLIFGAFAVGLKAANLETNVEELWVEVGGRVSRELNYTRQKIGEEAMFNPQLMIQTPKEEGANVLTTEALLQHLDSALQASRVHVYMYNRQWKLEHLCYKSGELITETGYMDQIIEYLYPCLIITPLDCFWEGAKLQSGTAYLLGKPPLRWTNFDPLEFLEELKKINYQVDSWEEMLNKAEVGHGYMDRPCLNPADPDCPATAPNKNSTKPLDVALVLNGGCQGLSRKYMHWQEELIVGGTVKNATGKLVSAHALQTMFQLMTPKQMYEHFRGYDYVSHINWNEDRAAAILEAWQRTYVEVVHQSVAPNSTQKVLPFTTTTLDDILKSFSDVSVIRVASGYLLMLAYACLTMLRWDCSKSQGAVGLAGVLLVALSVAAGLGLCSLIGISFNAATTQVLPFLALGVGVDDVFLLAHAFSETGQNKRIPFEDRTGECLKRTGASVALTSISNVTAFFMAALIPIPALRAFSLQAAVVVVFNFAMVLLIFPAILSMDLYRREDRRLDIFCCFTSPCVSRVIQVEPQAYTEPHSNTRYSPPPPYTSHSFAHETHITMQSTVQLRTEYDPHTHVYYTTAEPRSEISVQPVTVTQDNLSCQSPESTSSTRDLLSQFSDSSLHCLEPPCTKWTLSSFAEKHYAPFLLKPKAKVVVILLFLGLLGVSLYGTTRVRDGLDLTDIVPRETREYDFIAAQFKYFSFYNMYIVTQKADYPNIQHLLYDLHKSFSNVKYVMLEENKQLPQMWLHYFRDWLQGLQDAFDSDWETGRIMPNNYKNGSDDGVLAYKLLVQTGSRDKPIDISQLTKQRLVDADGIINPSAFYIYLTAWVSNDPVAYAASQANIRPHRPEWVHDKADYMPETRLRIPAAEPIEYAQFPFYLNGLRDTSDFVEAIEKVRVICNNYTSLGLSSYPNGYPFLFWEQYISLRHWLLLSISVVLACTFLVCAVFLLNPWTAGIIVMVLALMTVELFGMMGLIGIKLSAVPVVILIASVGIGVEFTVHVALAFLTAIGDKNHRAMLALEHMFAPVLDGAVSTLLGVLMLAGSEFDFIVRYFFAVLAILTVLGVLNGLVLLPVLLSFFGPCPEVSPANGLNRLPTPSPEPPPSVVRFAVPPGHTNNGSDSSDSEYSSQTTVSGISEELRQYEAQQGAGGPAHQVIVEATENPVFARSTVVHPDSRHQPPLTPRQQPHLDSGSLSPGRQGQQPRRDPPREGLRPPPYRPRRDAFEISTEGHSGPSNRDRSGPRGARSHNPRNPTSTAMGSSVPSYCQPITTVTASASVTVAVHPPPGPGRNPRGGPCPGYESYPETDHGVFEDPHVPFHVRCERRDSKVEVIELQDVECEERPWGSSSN

[2] = target: T1, Myc tagged mPatched (murine Patched with C-terminal Myc epitope tag) (mouse); assay: reciprocal co-immunoprecipitation and Western blot, 293 cells co-expressing both

**Q.** With “Flag tagged rSmo (rat Smoothened with C-terminal Flag epitope tag) (from UniProt P97698 33-793) (receptor)” as the substance, how does the binding [1] read?
**A.** The binding was “binds”.

**Q.** And the binding [2]?
**A.** The binding was “binds”.
